Reference: PubChem BioAssay AID208 (DTP/NCI, 2004)
The list does not hold the whole screen: it gathers tests that were run many times, whatever their T/C, doses with no T/C, and many T/C values between a quarter and a half above the control. Other doses and runs of a compound stand elsewhere. T/C: endpoint of the treated group in % of that of the vehicle group. Schedules are NCI's codes, read here as Q, the interval in days (D) or hours (H), X, the number of doses. Some entries were tested several times; the values are given in rising order. Some entries give survivors of the animals treated and no T/C: the source holds a T/C of zero for them, seemingly a mark for toxic or unscored doses. Counts of survivors are from the toxicity check (mostly the fifth day) where no day follows; animals may have died later.

Test system: HT29 intrarenal xenograft, nude mice, tumor weight change
Assay: NCI In Vivo Anticancer Drug Screen. Data for tumor model HT29;CX-1 Human Adenocarcinoma (MER+) (intrarenal inoculation) in NU/NU BALB/C (nude) mice
Conditions: T/C endpoint: mean tumor weight change, higher T/C = larger tumour; for T/C: evaluated on day 15
Method: The antitumor activity of compounds was measured in mice bearing transplantable tumors. Survival or tumor size were measured and the results are expressed as the measurement made in the treated group (T) divided by the measurement made in the vehicle treated control group (C). The tumor model used in this assay is HT29;CX-1 Human Adenocarcinoma (MER+) (intrarenal inoculation) in NU/NU BALB/C (nude) mice

[1] = dose: 100.0 mg/kg/injection, schedule: Q04DX004 (sc), vehicle: water
[2] = dose: 200.0 mg/kg/injection, schedule: Q04DX004 (sc), vehicle: water
[3] = dose: 300.0 mg/kg/injection, schedule: Q04DX004 (sc), vehicle: saline
[4] = dose: 600.0 mg/kg/injection, schedule: Q04DX004 (sc), vehicle: saline

In the case of CCC1OCC(C(Cl)CCl)O1 (centres undefined), the survivor count (dose: 267.0 mg/kg/injection, schedule: Q01DX014 (sc), vehicle: other) is reported as 1 of 6 on day 15, the survivor count (dose: 400.0 mg/kg/injection, schedule: Q01DX014 (sc), vehicle: other) is reported as 0 of 6 on day 15 and 3 of 6 on day 15 and the survivor count (dose: 600.0 mg/kg/injection, schedule: Q01DX014 (sc), vehicle: Klucel (hydroxypropylcellulose) (HPC)) is reported as 2 of 5 on day 15. The survivor count (dose: 600.0 mg/kg/injection, schedule: Q01DX014 (sc), vehicle: other) was 0 of 6 on day 15, the survivor count (dose: 900.0 mg/kg/injection, schedule: Q01DX014 (sc), vehicle: Klucel (hydroxypropylcellulose) (HPC)) was 0 of 5 on day 15 and 0 of 6 on day 15 and the survivor count (dose: 900.0 mg/kg/injection, schedule: Q01DX014 (sc), vehicle: other) was 0 of 5 on day 15 and 0 of 6 on day 15.

With CN(Cc1cnc2nc(N)nc(N)c2n1)c1ccc(C(=O)N[C@@H](CCC(=O)O)C(=O)O)cc1 the T/C (dose: 12.0 mg/kg/injection, schedule: Q04DX004 (ip), vehicle: sodium bicarbonate) was 38, 57, 64, 70, 103 % of control, the T/C (dose: 18.0 mg/kg/injection, schedule: Q04DX004 (ip), vehicle: sodium bicarbonate) was 26, 36, 78, 79, 100 % of control and the T/C (dose: 27.0 mg/kg/injection, schedule: Q04DX004 (ip), vehicle: sodium bicarbonate) was 13, 22, 62, 66, 68 % of control.

For C/C(=N\NC(=S)N1CCN(c2ccccn2)CC1)c1ccccn1, the survivor count [1] was 1 of 6 on day 15, the survivor count [2] was 0 of 6 on day 15 and the survivor count (dose: 400.0 mg/kg/injection, schedule: Q04DX004 (sc), vehicle: water) was 0 of 6 on day 15.

With C1CC[N-]CC1.[Cl][Pt+2][Cl].[NH-]C1CC1 the survivor count [1] was 3 of 5 on day 15 and the survivor count [2] was 0 of 5 on day 15.

Cc1cnc(/C=N\NC(N)=S)c2cccc(N)c12 was tested, and the survivor count (dose: 250.0 mg/kg/injection, schedule: Q04DX004 (ip), vehicle: saline with Tween-80) was 2 of 6 on day 15, the survivor count (dose: 500.0 mg/kg/injection, schedule: Q04DX004 (ip), vehicle: saline with Tween-80) was 1 of 6 on day 15 and the survivor count (dose: 1000.0 mg/kg/injection, schedule: Q04DX004 (ip), vehicle: saline with Tween-80) was 0 of 6 on day 15.

In the case of CCCNC1=C(C)C(=O)C2=C(C1=O)[C@H](COC(N)=O)[C@]1(OC)[C@@H]3N[C@@H]3CN21, the T/C (dose: 1.5 mg/kg/injection, schedule: Q04DX004 (sc), vehicle: saline) is reported as 127 % of control and the T/C (dose: 3.0 mg/kg/injection, schedule: Q04DX004 (sc), vehicle: saline) is reported as 126 % of control.

With CC(=O)OC(C)C1C2=C(C(=O)CC1(C)O)C(=O)c1c(ccc(-c3ccc4c(c3O)C(=O)C3=C(C4=O)C(C(C)OC(C)=O)C(C)(O)CC3=O)c1O)C2=O (centres undefined) the survivor count (dose: 60.0 mg/kg/injection, schedule: Q04DX004 (ip), vehicle: saline with Tween-80) was 0 of 6 on day 15.

For CCCCC1CCCCCCc2[nH]c(/C=C3\N=C(c4ccc[nH]4)C=C3OC)cc21 (centres undefined), the T/C (dose: 16.0 mg/kg/injection, schedule: Q04DX004 (sc), vehicle: saline with Tween-80) was 125 % of control.

C[C@@H]1C[C@@H]([C@H](O)CC2CC(=O)NC(=O)C2)C(=O)[C@@H](C)C1 was tested, and the survivor count (dose: 150.0 mg/kg/injection, schedule: Q04DX004 (sc), vehicle: saline) was 3 of 5 on day 15, the survivor count [3] was 0 of 6 on day 15 and the survivor count [4] was 0 of 6 on day 15.

CN(N=O)C(=O)N[C@@H](C=O)[C@@H](O)[C@H](O)[C@H](O)CO was tested, and the survivor count [4] was 0 of 6 on day 15 and the survivor count (dose: 1200.0 mg/kg/injection, schedule: Q04DX004 (sc), vehicle: saline) was 0 of 6 on day 15.

With Nc1nc2ccc(NCc3ccc(C(=O)NC(CCC(=O)O)C(=O)O)cc3)cc2c(=O)[nH]1 (centres undefined) the T/C (dose: 100.0 mg/kg/injection, schedule: Q04DX004 (sc), vehicle: saline with Tween-80) was 129 % of control and the survivor count (dose: 800.0 mg/kg/injection, schedule: Q04DX004 (sc), vehicle: saline with Tween-80) was 0 of 6 on day 15.

For O=C(O)CP(=O)(O)O, the T/C [3] was 143 % of control.
